Paper PMC12597689
Results are given in words; binding and its absence hold for the method and conditions named. In cells and extracts the contact can be indirect. These calls come from enrichment with a bait or labelling near it, and not all partners need be listed.

Amino acid sequences for entries named in this document (tags omitted).
UniProt Q13148: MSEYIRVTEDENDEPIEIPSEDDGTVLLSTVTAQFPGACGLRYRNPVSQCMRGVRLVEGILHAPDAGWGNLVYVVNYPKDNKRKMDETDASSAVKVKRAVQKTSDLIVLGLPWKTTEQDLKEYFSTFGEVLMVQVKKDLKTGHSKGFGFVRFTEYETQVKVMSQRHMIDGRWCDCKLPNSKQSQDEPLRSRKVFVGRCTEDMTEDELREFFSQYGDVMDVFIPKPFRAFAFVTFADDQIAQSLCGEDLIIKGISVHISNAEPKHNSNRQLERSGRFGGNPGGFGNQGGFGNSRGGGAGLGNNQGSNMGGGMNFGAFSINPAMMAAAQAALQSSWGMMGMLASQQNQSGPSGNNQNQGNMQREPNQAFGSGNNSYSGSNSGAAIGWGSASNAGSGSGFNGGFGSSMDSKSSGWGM

Biological target: transactive response DNA binding protein 43 kDa (human (endogenous in iPSC-derived motor neurons)) (UniProt Q13148)
Test: affinity purification with mass spectrometry; anti-TDP-43 (N-terminal) antibody coupled to M-270 epoxy beads; about 1 mg protein of iPSC-neuron lysate (control and KIF1A mutant neurons), 12 to 16 hours at 4°C; eluate analysed by LC-MS/MS

binding: binds
B1: KIF3B (protein, UniProt O15066 1-747)
chain: MSKLKSSESVRVVVRCRPMNGKEKAASYDKVVDVDVKLGQVSVKNPKGTAHEMPKTFTFDAVYDWNAKQFELYDETFRPLVDSVLQGFNGTIFAYGQTGTGKTYTMEGIRGDPEKRGVIPNSFDHIFTHISRSQNQQYLVRASYLEIYQEEIRDLLSKDQTKRLELKERPDTGVYVKDLSSFVTKSVKEIEHVMNVGNQNRSVGATNMNEHSSRSHAIFVITIECSEVGLDGENHIRVGKLNLVDLAGSERQAKTGAQGERLKEATKINLSLSALGNVISALVDGKSTHIPYRDSKLTRLLQDSLGGNAKTVMVANVGPASYNVEETLTTLRYANRAKNIKNKPRVNEDPKDALLREFQEEIARLKAQLEKRSIGRRKRREKRREGGGSGGGGEEEEEEGEEGEEEGDDKDDYWREQQEKLEIEKRAIVEDHSLVAEEKMRLLKEKEKKMEDLRREKDAAEMLGAKIKAMESKLLVGGKNIVDHTNEQQKILEQKRQEIAEQKRREREIQQQMESRDEETLELKETYSSLQQEVDIKTKKLKKLFSKLQAVKAEIHDLQEEHIKERQELEQTQNELTRELKLKHLIIENFIPLEEKSKIMNRAFFDEEEDHWKLHPITRLENQQMMKRPVSAVGYKRPLSQHARMSMMIRPEARYRAENIVLLELDMPSRTTRDYEGPAIAPKVQAALDAALQDEDEIQVDASSFESTANKKSKARPKSGRKSGSSSSSSGTPASQLYPQSRGLVPK
